# No constants are given. Whether binding was seen depends on the method and setting.
# T1: full-length human Draxin for SAXS (human), Q8NBI3
# T1 chain: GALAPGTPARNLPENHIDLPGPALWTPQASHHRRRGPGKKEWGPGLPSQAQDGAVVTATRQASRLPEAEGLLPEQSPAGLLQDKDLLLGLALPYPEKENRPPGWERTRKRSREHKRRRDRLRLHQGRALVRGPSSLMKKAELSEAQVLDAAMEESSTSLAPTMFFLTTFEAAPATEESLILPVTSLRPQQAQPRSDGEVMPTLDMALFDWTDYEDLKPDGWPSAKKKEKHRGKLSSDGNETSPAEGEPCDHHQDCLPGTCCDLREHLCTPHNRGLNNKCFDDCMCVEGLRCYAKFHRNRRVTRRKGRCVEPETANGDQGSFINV
# B1: full-length human Draxin for SAXS, Q8NBI3 26-349 (protein)
# chain: T1 chain
# Target: T1, full-length human Draxin for SAXS …
# Experiment: SAXS; dilution series 0.3 - 1.2 mg/ml, 20 C, 20 mM HEPES pH 7.4, 150 mM NaCl, 5 mM KCl, 1 mM MgCl2, 1 mM DTT, 10% glycerol; both purified
# Conditions: remark: other sources report otherwise
binder,measurement,value
B1,binding,no binding (tested: 0.3 – 1.2 mg/ml)
